From paper PMC4220643 come the findings set out here.

Chains of the proteins cited; added tags and fusions are not shown. Lines headed by an entry give the natural chain unless they say otherwise; changes in a name come on top.
UniProt Q9F1L5: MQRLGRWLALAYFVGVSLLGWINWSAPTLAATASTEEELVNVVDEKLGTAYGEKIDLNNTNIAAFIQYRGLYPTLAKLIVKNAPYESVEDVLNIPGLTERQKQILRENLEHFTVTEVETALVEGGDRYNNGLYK

These are yes or no findings as the source states them, for the method shown.

The target of this test is Im7 fusion protein of PsbU (Thermosynechococcus elongatus) (UniProt Q9F1L5). The test can be described thus: SPR; Biacore3000, CM5 chip coated with DNase E7; extrinsic proteins as Im7 fusion proteins overexpressed in E. coli; who was immobilised is not told in the main text; details in the supplementary material; both purified. (In general: In SPR one partner is held on a chip, and binding of the other changes the refractive index at the surface.)

B1: CyanoP (protein, UniProt Q8DH84 20-183)
chain: CSATSGLQAYVDSYDGYEFLYPRGWVQVQVEDPVDVVFHDIIETTENVSVVVNTVASTKSLEELGSPEEVGDRLLRNIIAPSESGRSSALIAATSQKADDKTYYILEYAVTLPGDGNTAQQRHNLSSIAVSRGKVYTLSVSAPEERWPKVEDQFKTIVSSFTVY
Turning to B1, the binding entry was “no binding (tested: up to 100 μM)”.
